Measured values from PubChem BioAssay AID662 (National Center for Advancing Translational Sciences (NCATS), 2007).
This is one part of the list. Further columns of the screen follow, without active or inactive calls. The list favours compounds with an active or inconclusive main result. Words in brackets tell the shape of the fitted curve; partial curves, single points and poor fits give uncertain potencies.

Experiment: Cell signaling CRE-BLA (Fsk stim)
Conditions: CHO CRE-bla reporter (cAMP response element driving beta-lactamase), forskolin EC10, beta-lactamase ratio; measured here: 460 nm blue channel
Summary of the method: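 Using CellSensor CRE-bla CHO cells in Opti-MEM with 0.5% dialyzed FBS, compounds were titrated with EC10 NKH 477 for 3 h at 37 °C. CCF4 ratio (460/530 nm) gave %Activity; AC50 derived.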
With `CCOC(=O)c1c(C)oc2ccc(OCC(N)=O)cc12` the AC50 was 12.6 µM [rising, single point]. In the case of `CCOc1ccccc1NS(=O)(=O)c1c(C)noc1C`, the AC50 is reported as 10 µM [falling, partial curve]. With `Brc1cccc(-c2nnc(SCc3ccon3)n2-c2ccccc2)c1` the AC50 was 7.94 µM [rising, partial curve]. In the case of `Cc1cc(C(F)F)n2ncc(C(=O)NC3CCCCCC3)c2n1`, the AC50 is reported as 25.1 µM [rising, single point]. With `CC1=C(/C=C/C(C)=C/C=C/C(C)=C/C(=O)Nc2ccc(O)cc2)C(C)(C)CCC1` the AC50 was 15.8 µM [falling, partial curve]. For `C[C@H](NC(=O)Nc1ccccc1F)C(=O)O`, the AC50 was 5.01 µM [falling, full curve]. With `COC(=O)c1ccc(OC)c(CSc2nnc(COc3ccc(Cl)cc3)o2)c1` the AC50 was 3.98 µM [rising, single point]. For `CCc1c(C)nc2ncnn2c1N1CCCC(C(=O)NCc2ccc3c(c2)OCO3)C1` (stereo not drawn), the AC50 was 10 µM [rising, partial curve]. In the case of `O=C(NCCCN1CCOCC1)c1cc(-c2ccc(Br)cc2)on1`, the AC50 is reported as 0.501 µM [falling, partial curve]. For `O=C(CSc1nnc(-c2cccc(S(=O)(=O)N3CCCCC3)c2)o1)c1ccc[nH]1`, the AC50 was 5.01 µM [falling, single point]. For `CNc1nc(-c2ccoc2)nc2ccccc12`, the AC50 was 3.98 µM [rising, full curve]. For `COCCn1c(SCC(=O)Nc2ncc(Cl)c(C)c2Cl)nc2ccccc21`, the AC50 was 5.01 µM [rising, partial curve]. With `COc1cccc(/C=N/n2c(SC)nnc2-c2ccccc2)c1O` the AC50 was 10 µM [rising, partial curve]. For `CCCOC(=O)c1ccc(Oc2c(-c3ccc(OCC)cc3O)n[nH]c2C)cc1`, the AC50 was 15.8 µM [falling, single point]. With `O=S(=O)(c1ccccc1)c1nc(-c2ccco2)oc1NCCCn1ccnc1` the AC50 was 15.8 µM [rising, partial curve]. With `CCC(=O)Nc1cccc(NC(=O)c2cc3ccccc3o2)c1` the AC50 was 25.1 µM [falling, single point]. In the case of `Cc1cc(S(=O)(=O)NCCN(C)C)c(C)s1`, the AC50 is reported as 10 µM [rising, partial curve]. In the case of `CCOC(=O)c1oc2ccccc2c1NC(=O)c1cc(OC)cc(OC)c1`, the AC50 is reported as 12.6 µM [rising, partial curve]. In the case of `Cc1cc(NC(=O)CSc2nc3c(c(=O)n2-c2ccc(Br)cc2)SCC3)no1`, the AC50 is reported as 3.98 µM [rising, single point]. For `Cc1cccc2nc(=S)n(C(=O)c3ccco3)n12`, the AC50 was 25.1 µM [rising, single point]. In the case of `COC(=O)C1=CN(C)C=C(C(=O)OC)C1c1ccc(Cl)cc1Cl`, the AC50 is reported as 12.6 µM [rising, partial curve]. For `COc1ccc(CCNC(=O)C2CCN(C(=O)N(C)C)CC2)cc1OC`, the AC50 was 25.1 µM [rising, single point]. For `O=C(C1CC1)N1CCc2cc(S(=O)(=O)NCCC3=CCCCC3)ccc21`, the AC50 was 12.6 µM [rising, single point]. For `CCc1ccc2c(c1)c1nc(C)sc1n2CC`, the AC50 was 6.31 µM [falling, full curve, poor fit]. With `COC(=O)c1ccc(COC(=O)c2c(C)nn(Cc3ccccc3Cl)c2Cl)o1` the AC50 was 25.1 µM [falling, single point]. With `Cn1c(=O)c(=O)n(C)c2cc(S(=O)(=O)N3CCc4ccccc43)ccc21` the AC50 was 2 µM [falling, single point]. For `N#Cc1c(C(F)(F)F)cc(-c2ccco2)nc1SCc1ccccn1`, the AC50 was 12.6 µM [rising, partial curve]. With `COc1ccc(S(=O)(=O)N2CC(O)CC2C(=O)OCC(=O)Nc2ccc(Cl)cn2)cc1` (stereo not drawn) the AC50 was 3.98 µM [falling, partial curve, poor fit]. With `c1ccc2c(c1)nc(NC1CCCCC1)c1nncn12` the AC50 was 12.6 µM [rising, partial curve]. For `CCCCCn1c(=NC(C)=O)c(C#N)cc2c(=O)n3cccc(C)c3nc21`, the AC50 was 5.01 µM [rising, partial curve]. With `COc1ccc(CCNC(=O)CCN2C(=O)C3CC=CCC3C2=O)cc1OC` (stereo not drawn) the AC50 was 25.1 µM [rising, single point]. With `Cn1c(SCc2nc3ccccc3[nH]2)nnc1-c1cccnc1` the AC50 was 25.1 µM [rising, single point]. For `COc1ccc(N2CCN(C(=O)c3ccc(NS(=O)(=O)c4ccc(F)cc4)cc3)CC2)cc1`, the AC50 was 5.01 µM [falling, single point]. With `CC1CC(C)(C)Nc2ccc(OC(=O)c3ccco3)cc21` (stereo not drawn) the AC50 was 12.6 µM [falling, single point]. In the case of `Cc1cccc(NC(=O)CCN2C(=O)C3C4C=CC(C4)C3C2=O)n1` (stereo not drawn), the AC50 is reported as 0.0501 µM [falling, full curve, poor fit]. For `CCN1c2ccccc2-c2nc3ccccc3n2C1c1ccncc1` (stereo not drawn), the AC50 was 7.94 µM [rising, partial curve]. With `CCCc1cc(N2CCCC2)n2nc(C)c(-c3ccccc3)c2n1` the AC50 was 1.26 µM [rising, full curve]. For `CC(=O)c1c(COC(=O)c2ccco2)nc2ccccc2[n+]1[O-]`, the AC50 was 15.8 µM [falling, partial curve]. For `CCOC(=O)c1cnc(-n2nc(C)cc2C)nc1N(CC)CC`, the AC50 was 25.1 µM [rising, single point]. With `O=S(=O)(c1cccs1)N1CN(CC2CCCO2)c2nc3ccccc3nc21` (stereo not drawn) the AC50 was 1.26 µM [rising, full curve]. With `O=c1cc(CSc2nnc(COc3ccc(Cl)cc3)o2)c2ccccc2[nH]1` the AC50 was 10 µM [rising, single point]. With `COc1ccc(CNC(=O)C(C#N)c2nc3ccccc3nc2N2CCN(C)CC2)cc1` (stereo not drawn) the AC50 was 0.316 µM [rising, full curve]. In the case of `O=c1oc2c(CN3CCCCCC3)c(O)ccc2cc1-c1nc2ccccc2[nH]1`, the AC50 is reported as 7.94 µM [rising, partial curve]. For `Cc1nc2cncnc2n(Cc2ccccc2)c1=O`, the AC50 was 12.6 µM [rising, single point]. For `Cc1ccc(-c2nc(NC(=O)CSc3nnc4scc(-c5ccccc5)n34)ns2)cc1`, the AC50 was 3.16 µM [rising, full curve]. For `CC(C)c1cc(C(N)=O)c(NC(=O)C2CCC2)s1`, the AC50 was 12.6 µM [rising, partial curve]. For `O=C(Nc1ccc(Cl)cc1C(=O)NCC1CCCO1)c1ccco1` (stereo not drawn), the AC50 was 12.6 µM [rising, single point]. With `C=CCn1c(N2CCCCCC2)nc2c1c(=O)[nH]c(=O)n2C` the AC50 was 25.1 µM [rising, single point]. For `CN1CCc2c(sc3c2C(=O)NC(c2ccco2)N3)C1` (stereo not drawn), the AC50 was 12.6 µM [rising, partial curve]. For `CCOc1ncccc1C(=O)NCC1COc2ccccc2O1` (stereo not drawn), the AC50 was 12.6 µM [rising, partial curve]. In the case of `O=c1c2cccc3c(N4CCOCC4)ccc(c32)c2nc3ccccc3n12`, the AC50 is reported as 2 µM [falling, full curve]. For `CC(=O)Nc1ccc(Cc2ccc3[nH]c(=O)cc(C)c3c2)cc1`, the AC50 was 5.01 µM [rising, single point]. With `COc1ccc(-c2cc(C(F)(F)F)n3nc(C(=O)NCc4ccco4)cc3n2)cc1` the AC50 was 12.6 µM [rising, partial curve]. With `COc1ccc(C2C(C(=O)N3CCN(c4ccccc4)CC3)c3ccccc3C(=O)N2C)cc1OC` (stereo not drawn) the AC50 was 0.00316 µM [falling, full curve, poor fit]. With `O=C(O)CSc1nc(-c2ccccc2)nc2c1oc1ccccc12` the AC50 was 5.01 µM [rising, partial curve]. For `CC1CCCC(NC(=O)CN2CCN(Cc3ccc(Cl)cc3)C2=O)C1C` (stereo not drawn), the AC50 was 12.6 µM [rising, partial curve, poor fit]. With `N#CCCn1c(=O)c(-c2cc(F)cc(F)c2)nc2cnc(N3CCOCC3)nc21` the AC50 was 12.6 µM [rising, partial curve]. In the case of `Cc1nc(SCC(=O)Nc2ccc(F)cc2)c2oc3ccccc3c2n1`, the AC50 is reported as 0.316 µM [rising, full curve]. With `O=c1c(-c2ccc(F)cc2)nc2cnc(N3CCNCC3)nc2n1Cc1cccs1` the AC50 was 1.58 µM [rising, full curve]. With `COCCn1cc(C(=O)NCc2cccs2)c2c3ccccc3n(C)c2c1=O` the AC50 was 3.16 µM [rising, partial curve]. In the case of `Cc1ccc(Nc2cc(C)nn2-c2nc(C)cc(C)n2)cc1`, the AC50 is reported as 15.8 µM [rising, single point]. For `CCN(CCCn1c(=S)[nH]c2ncccc2c1=O)c1ccccc1`, the AC50 was 0.126 µM [rising, partial curve]. In the case of `CC1CCCCN1S(=O)(=O)c1ccc2c(c1)CCN2C(=O)C1CCC1` (stereo not drawn), the AC50 is reported as 10 µM [rising, single point]. In the case of `O=C(Nc1nccs1)C1CCCN(S(=O)(=O)c2cccc3cccnc23)C1` (stereo not drawn), the AC50 is reported as 25.1 µM [falling, single point]. With `OC(COc1ccc(Cl)cc1)CN1C2=NCCCN2c2ccccc21` (stereo not drawn) the AC50 was 25.1 µM [falling, single point]. With `CCOc1ccccc1NC(=O)N1CCC(NC(=O)c2cccc(C)c2)CC1` the AC50 was 0.501 µM [falling, partial curve]. With `CCCOc1nc2c(c(=O)n(C)c(=O)n2C)n1CCC` the AC50 was 12.6 µM [rising, partial curve]. For `Cc1cccc2nc(Cn3c(=O)n(CCC(=O)NCc4ccco4)c(=O)c4sccc43)cc(=O)n12`, the AC50 was 10 µM [rising, single point].
